The values that follow are results of earlier work, collected in patent publication US5847108A, “Clathrate of isoflavone derivatives and edible composition comprising the same” (Fujicco Co., Ltd., priority 1996, dated 1998).

The conditions of this series: taste; Okubo et al.; cited from earlier work.

Regarding `O=c1c(-c2ccc(O)cc2)coc2cc(O[C@@H]3O[C@H](CO)[C@@H](O)[C@H](O)[C@H]3O)ccc12` [daidzin], the Threshold value is given as 10^-2 mm.
As to `O=c1c(-c2ccc(O)cc2)coc2cc(O[C@@H]3O[C@H](CO)[C@@H](O)[C@H](O)[C@H]3O)cc(O)c12` [genistin], the Threshold value was 10^-1 mM.
Regarding `COc1cc2c(=O)c(-c3ccc(O)cc3)coc2cc1O[C@@H]1O[C@H](CO)[C@@H](O)[C@H](O)[C@H]1O` [glycitin], the Threshold value was 10^-3 mM.
